Laboratory results: paper PMC8384840
These are yes or no findings as the source states them, for the method shown. Some binding calls cover weakened binding; strength is not graded here.

Amino acid sequences for entries named in this document (tags omitted). A change or cut given only in a name is not applied to a line headed by its entry. Chains listed by the source or under a name are the forms on record and can include a tag or linker.
UniProt P04792: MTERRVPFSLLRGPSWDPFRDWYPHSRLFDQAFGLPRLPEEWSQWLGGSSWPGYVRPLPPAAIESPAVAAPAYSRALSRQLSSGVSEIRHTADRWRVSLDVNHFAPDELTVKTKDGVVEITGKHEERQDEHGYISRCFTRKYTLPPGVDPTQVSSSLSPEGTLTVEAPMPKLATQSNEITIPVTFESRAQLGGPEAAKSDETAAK
HSPB1-3D (P04792, form named): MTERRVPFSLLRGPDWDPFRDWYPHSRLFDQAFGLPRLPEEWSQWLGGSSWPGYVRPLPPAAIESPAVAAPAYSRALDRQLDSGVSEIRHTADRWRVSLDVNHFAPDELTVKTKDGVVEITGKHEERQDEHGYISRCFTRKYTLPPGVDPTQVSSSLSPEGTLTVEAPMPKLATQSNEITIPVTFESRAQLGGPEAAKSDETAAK
HSPB1-3D-GxG (P04792, form named): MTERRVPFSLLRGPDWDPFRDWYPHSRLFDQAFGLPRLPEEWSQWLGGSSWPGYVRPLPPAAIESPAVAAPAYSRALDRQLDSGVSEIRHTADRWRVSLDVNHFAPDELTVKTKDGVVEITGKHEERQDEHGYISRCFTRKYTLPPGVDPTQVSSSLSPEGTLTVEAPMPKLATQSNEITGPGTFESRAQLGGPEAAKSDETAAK

How the values were obtained:
[1] = target: Firefly luciferase (firefly) [luciferase: P08659]; assay: cross-linking; 2 µM luciferase or LDH at 4 °C or heat shocked (45 °C or 55 °C) without or with HSPB1-3D or HSPB1-3D-GxG; DSS at varying concentrations, 5 min, room temperature; immunoblot for luciferase, LDH and HSPB1; both purified
[2] = target: Firefly luciferase (firefly) [luciferase: P08659]; assay: dynamic light scattering; 2 µM luciferase or LDH with 20 µM HSPB1 or its mutants, incubated at 45 °C or 55 °C for 15 min in reaction buffer, then measured; both purified
[3] = target: Firefly luciferase (firefly) [luciferase: P08659]; assay: SEC; 2 µM luciferase (45 °C) or LDH (55 °C) heat shocked 15 min with 20 µM HSPB1 construct, or the HSPB1 construct heat shocked alone; analysed at the start (0 h) of the disaggregation reaction; Superose 12, reaction buffer, 4 °C; fractions detected by immunoblot; both purified

| binding [1] | binding [2] | Substance | binding [3] |
| --- | --- | --- | --- |
| binds | binds | HSPB1-3D (from UniProt P04792 1-205) |  |
|  |  | HSPB1-3D-GxG (from UniProt P04792 1-205) | no binding (tested: 20 µM HSPB1-3D-GxG with 2 µM luciferase) |
